± gives the standard deviation of the averaged measurements. This is one part of the list. Single values are uncertain, as repeats are few or missing.

In this test the test system is RAW 264.7 macrophages infected with S. aureus JE2-lux. Description: host macrophage viability (CellTiter-Fluor) relative to DMSO vehicle; higher = more viable host cells. The settings on record: 10 µM; treatment time 4 h; gentamicin 50 µg/ml.
Regarding `O=C(COc1coc(CN2CCc3ccccc3C2)cc1=O)NCc1ccc2c(c1)OCO2`, the host macrophage viability came out at 113%.
Consider `COc1ccc(-c2nc(OCC(=O)Nc3cccc(OC)c3)c3c4c(sc3n2)CCCC4)cc1`, for which the host macrophage viability is 118%.
With `CCOC(=O)c1cccc(NC(=O)Cn2cc(-c3nnc(CN4CCCCC4)o3)c3ccccc32)c1` the figure was 118%; with `COc1ccc2sc(Nc3ccc(F)cc3F)nc2c1`, 112%; with `Cc1cc(NC(=O)Cn2nnc(-c3ccc4c(c3)OCO4)n2)no1`, 118%.
As to `N=C1NC(=O)C(CC(=O)Nc2cccc3ccccc23)S1` (stereo not given), the host macrophage viability was determined as 112%.
For `COc1ccc(CN2Cc3ccncc3C2=O)c(OC)c1`, the host macrophage viability worked out at 117%.
Next, `COc1ccc(NC(=O)COc2nc(C)nc3onc(-c4ccccc4)c23)c(OC)c1`: 131%; `O=c1cc(-c2ccc(F)cc2)nc(N2CCN(Cc3ccc4c(c3)OCO4)CC2)[nH]1`: 140%; `Cc1ccc([N+](=O)[O-])cc1NC(=O)CC(C(=O)O)N1CCN(C)CC1` (stereo not given): 120%.
In the case of `CCOC(=O)CCCSc1nc2sc3c(c2c(=O)[nH]1)CCC3`, the host macrophage viability was found to be 116%.
As for `Cc1ccc(S(=O)(=O)N2CCCc3ccc(NC(=O)c4ccc5c(c4)OCO5)cc32)cc1`, the host macrophage viability was 99.7%.
Next, `Cc1cc(C)c2sc(NNC(=O)c3nc4ccccc4s3)nc2c1`: 119 ± 18%.
`Cc1nn(C)c2ncc(C(=O)NC3CC3)c(NCc3ccccc3)c12`: the host macrophage viability amounted to 106%.
Next, `O=C1N/C(=N\c2ccccc2)c2c1cccc2[N+](=O)[O-]`: 105%; `CC1CN(CCc2ccccc2)c2nc3c(c(=O)n(CC(=O)OCc4ccccc4)c(=O)n3C)n2C1` (stereo not given): 118%; `CCOc1ccc(-c2csc3c(=O)n(C)cnc23)cc1OCC`: 104%.
Regarding `CC1CN(S(=O)(=O)c2ccc(C(=O)NNC(=O)c3ccc4ncsc4c3)cc2)CC(C)O1` (stereo not given), the host macrophage viability worked out at 105%.
With `CCOc1ccc(NC(=O)c2ccc(CNc3nc4[nH]c(C)cc(=O)n4n3)cc2)cc1` the figure was 93.2%.
Next, `N=C1SCC(=O)N1c1ncc(Cc2ccccc2F)s1`: 129%; `Cn1c(SCC(=O)c2ccc(F)cc2)ncc(C(=O)Nc2ccccc2)c1=O`: 126%; `CC1(C)CC(=O)c2sc(NC(=O)c3cccc(N4C(=O)CCC4=O)c3)nc2C1`: 105 ± 16%.
Turning to `CCN(CC)S(=O)(=O)c1ccc(C(=O)Nc2nnc(-c3cccc(S(C)(=O)=O)c3)o2)cc1`, the host macrophage viability worked out at 133%.
Next, `COc1ccccc1-n1c(=O)[nH]c2c(C(N)=O)nc(-c3cccc(OC)c3O)nc21`: 122%; `CN(C(=O)c1cnc(N2CCCCC2)c2ccccc12)C1CCCCC1`: 123%; `C=CCNC(=O)Cn1nc(-c2cc(C)oc2C)cc(N)c1=O`: 94.7%.
As to `CCCCC1CCC(C(=O)Oc2cc(C)[nH]c(=O)c2[N+](=O)[O-])CC1` (stereo not given), the host macrophage viability worked out at 109%.
Next, `CCc1nnc2ccc(C(=O)NCc3ccc(Cl)cc3)cn12`: 116%.
Next, `O=C(COc1ccccc1)Nc1nc2c(cc3c4c(cccc42)CC3)s1`: 119 ± 16%; `O=C(O)CCCN1C(=O)c2cccc([N+](=O)[O-])c2C1=O`: 114 ± 1.7%.
For the compound `COc1ccccc1NS(=O)(=O)c1cc(C)c2[nH]c(=O)cc(C)c2c1`, the host macrophage viability came out at 119%.
With `NC(=O)C1(N2CCCCC2)CCN(c2ccc(NS(=O)(=O)c3ccccc3)c(C(=O)O)c2)CC1` the figure was 139%; with `COc1cccc2cc(C(=O)Nc3ccc(F)cc3)/c(=N/NS(=O)(=O)c3ccccc3)oc12`, 109%; with `O=C1CCCN2N=C(SCC(=O)NCc3ccco3)SC2=N1`, 121%.
`O=C(CCn1nnc2ccccc21)N/N=C/c1cccc(O)c1`: the host macrophage viability worked out at 126%.
For `O=C(Cn1cnc2c(cnn2-c2ccc(Cl)cc2)c1=O)N1CCc2ccccc21`, the host macrophage viability stood at 116 ± 19%.
For `CCCc1ccc(C(=O)CC2(O)C(=O)Nc3ccc(C)cc32)cc1` (stereo not given), the host macrophage viability worked out at 146%.
With `CCCCc1ccc(NC(=O)CSc2nc(=O)n3ccccc3n2)cc1` the figure was 118%; with `CCOc1ccccc1NC(=O)c1c[nH]c(=O)n(-c2ccc(F)cc2)c1=O`, 106 ± 6.4%.
For `O=C(Nc1ncc(Cc2ccc(F)cc2)s1)c1ccc2nccnc2c1`, the host macrophage viability is 127%.
With `O=C(Nc1ccccc1Cl)c1cccnc1-c1ccsc1` the figure was 110%; with `CCOc1ccc(-c2csc(/C(C#N)=C\c3ccc(O)c(OCC)c3)n2)cc1`, 149 ± 6.7%.
For the compound `CC(C(=O)Nc1ncc([N+](=O)[O-])s1)N1C(=O)c2ccccc2S1(=O)=O` (stereo not given), the host macrophage viability was 104%.
Consider `CC(C)c1ccc(/C=C(\C#N)C(=O)Nc2cccc(Br)c2)cc1`, for which the host macrophage viability came to 113%.
Next, `CSc1nc2cc(NC(=S)NC(=O)c3ccccc3)ccc2s1`: 118%; `Cn1c2ccccc2n2c(=O)n(CC(=O)N3CCOCC3)nc12`: 120%; `O=C(CS(=O)(=O)Cc1ccccc1)Nc1nc2ccc(Br)cc2s1`: 102%.
For `Cc1nn2c(NCc3ccccn3)cc(C(C)(C)C)nc2c1-c1ccc(F)cc1`, the host macrophage viability is 102%.
With `COc1ccccc1NC(=O)CSc1nnc2sc3ccccc3n12` the figure was 115%; with `COC(=O)c1ccccc1NC(=O)c1cc2cccnc2n(C)c1=O`, 112%; with `CCOc1ccc(CCNc2nccn(-c3ccc4c(c3)OCO4)c2=O)cc1OCC`, 114%.
Regarding `COc1ccc(OC)c(NC(=O)C(=O)NCc2cccs2)c1`, the host macrophage viability turned out to be 98.2%.
With `CC(C)(C)c1ccc(-c2cc(=O)c3cc(NC(=O)c4cccnc4)ccc3o2)cc1`, the host macrophage viability is 102%.
On to `Cc1ccc(-n2c(N)cc(=O)nc2SCC(=O)Nc2nccs2)cc1`, for which the host macrophage viability turned out to be 107%.
With `Cc1cc(C)nc(SCc2cc(=O)c(OC(=O)c3cc(Cl)ccc3Cl)co2)n1` the figure was 121%; with `O=C(O)CCCN1C(=O)C2C3CC(C2C1=O)C1C(c2cccnc2)c2sc(=O)[nH]c2SC31` (stereo not given), 116%.
With `Cc1ccc(Nc2nc(C(=O)NCc3ccco3)cc3occc23)cc1` the figure was 87%; with `CC(=O)c1cccc(NC(=O)NN2CCOCC2)c1`, 111%.
With `O=C(NCC1COCCO1)c1ccc(C(F)(F)F)nc1N1CCN(CCO)CC1` (stereo not given) the figure was 114%; with `CCCc1nnc(SCC(=O)Nc2ccccc2C(=O)OC)n1-n1cccc1`, 113%; with `O=c1[nH]cncc1-c1nc(-c2ccc(Cl)cc2)no1`, 109%.
For `CCOc1ccc(CNC(=O)CCn2cnc3onc(-c4ccccc4)c3c2=O)cc1`, the host macrophage viability worked out at 106%.
On to `Cn1c(SCC(=O)N/N=C/c2ccc(Cl)cc2)nc2ccccc21`, for which the host macrophage viability turned out to be 121%.
Next, `O=C(NCCc1ccccc1)c1cccnc1Nc1ccc2c(c1)OCCO2`: 103%; `COc1cc(NS(=O)(=O)c2ccc(NC(=O)Nc3ccccc3)cc2)nc(OC)n1`: 124%; `O=C(NCc1ccc2[nH]c3c(c2c1)CCCC3)C(=O)c1c[nH]c2ccccc12`: 116 ± 6.8%.
For `COc1ccc(NC(=O)Cn2c(=O)n(-c3ccccc3)c(=O)c3oc4ccccc4c32)cc1OC`, the host macrophage viability was 110%.
On to `Cc1cc(=O)n2nc(-c3ccc(Cl)cc3)nc2n1CC(=O)Nc1ccccc1F`, for which the host macrophage viability was 117%.
As for `Cc1onc(-c2ccccc2Cl)c1C(=O)Oc1cc(N)n(S(=O)(=O)c2ccc(F)cc2)n1`, the host macrophage viability turned out to be 113%.
With `CC(C)c1ccc(Cc2cnc(N3C(=N)SCC3=O)s2)cc1` the figure was 131%; with `O=C(CSc1nc(=O)n(CCO)c2c1CCCC2)Nc1ccccc1[N+](=O)[O-]`, 101%.
Next, `O=C(CN1C(=O)c2ccccc2C1=O)Nc1ccc2c(c1)C(=O)NC2=O`: 114%; `CCc1cccc(NC(=O)c2c(-c3ccccc3)nnc3ccccc23)c1`: 120%; `Cc1nn2c(C)c(C(=O)NCc3ccc(F)cc3)cnc2c1-c1ccccc1`: 110%.
Consider `O=C(O)CCc1nc(N2CCCCC2)c2c(-c3ccc(F)cc3)noc2n1`, for which the host macrophage viability came out at 111%.
Next, `Cc1nc2ccc(C(=O)NC(c3ccncc3)c3ccccc3C)cc2s1` (stereo not given): 118%.
With `Clc1ccc(-n2ncc3c(Cl)ncnc32)cc1` the figure was 122%; with `CCc1cc2ccc(C)c(C)c2nc1SCC(=O)NNC(=O)c1ccco1`, 110%.
With `NC(=O)N/N=C/c1sc(=O)n(Cc2cccc(C(=O)O)c2)c1Cl` the figure was 121%; with `O=C1C=C(Nc2ccccc2)C(=O)N1c1ccccc1Cl`, 101%.
As to `COc1ccc(CCNC(=O)Cc2csc3nc(-c4ccc(F)cc4)cn23)cc1OC`, the host macrophage viability was 118%.
Take `O=C(Nc1cccc2c1CCCC2)c1cc(-c2ccccn2)[nH]n1`: the host macrophage viability came out at 124%.
As for `CCn1c(SCc2nc(-c3cccc(Cl)c3)no2)nc2cc3c(cc2c1=O)OCO3`, the host macrophage viability came out at 129%.
With `COc1ccc(CNC(=O)c2cc(-c3ccccc3F)nc3[nH]nc(-c4cccc(OC)c4)c23)cc1` the figure was 140%; with `COc1ccc(C(=O)NCC(c2cccs2)N2CCc3ccccc3C2)cc1` (stereo not given), 113%; with `O=C(Nc1ccc2c(c1)OCCO2)C(=O)Nc1cccc2cccnc12`, 111%.
For `CSc1cccc2sc(Nc3cccc(C)c3)nc12`, the host macrophage viability turned out to be 123%.
With `Cc1noc2ncnc(NCCN3CCCCC3C)c12` (stereo not given) the figure was 114%; with `O=C1c2ccccc2-c2nn(C(=O)C3CCN(S(=O)(=O)c4cccs4)CC3)c3cccc1c23`, 149%.
Next, `CC(=O)Nc1ccc(NC(=O)Cn2c(-c3nnc(C)o3)cc3ccccc32)cc1`: 109%; `O=C(NCCS(=O)(=O)N1CCC2(CC1)OCCO2)c1ccc2c(c1)OCO2`: 110%; `Cc1ccc(C)c(NC(=O)Cn2ncn3nc4c(c3c2=O)CCCC4)c1`: 124%.
`CC(C)c1ccc2nc(SCC(=O)Nc3c[nH]c(=O)[nH]c3=O)c(C#N)cc2c1`: the host macrophage viability was found to be 107%.
With `COc1ccc(S(=O)(=O)NCc2ccco2)cc1C(=O)O` the figure was 107 ± 1.2%; with `CCCc1cc(CNC(=O)C2CC(c3cnn(C)c3)=NO2)on1` (stereo not given), 111%.
On to `CCc1ccc(-n2nc(-c3nc(-c4ccncc4)no3)c3ccccc3c2=O)cc1`, for which the host macrophage viability amounted to 109%.
With `COC(=O)COc1cc2c(-c3cc4cccc(OC)c4o3)cc(=O)oc2cc1C` the figure was 126%.
Next, `Cc1onc(-c2ccccc2)c1C(=O)N1CCc2ccccc2C1`: 104%; `O=c1c2ccccc2nc2c3ccccc3c(Cl)nn12`: 111 ± 8.1%; `CC(=O)c1cccc(NC(=O)NC2CC3CCC(C2)N3Cc2ccc(F)cc2)c1` (stereo not given): 99.2%.
`O=C(Cn1c2c(c(=O)n3ncnc13)CCC2)Nc1ccccc1`: the host macrophage viability worked out at 113%.
In the case of `CCn1nc(C)c2[nH]c(=S)n(CC3CCCO3)c(=O)c21` (stereo not given), the host macrophage viability came to 106%.
Next, `O=C(CSc1ncnc2sc3c(c12)CCCC3)Nc1ccc(Br)cc1`: 109%.
Next, `CCOC(=O)C1=C(C)N=c2s/c(=C/c3cc([N+](=O)[O-])ccc3O)c(=O)n2C1c1cccs1` (stereo not given): 107%; `COc1ccc(OC)c(NS(=O)(=O)c2cc(-c3ccn[nH]3)cs2)c1`: 115%.

These data come from the supplement of paper PMC12578635.
